This is one part of the list. Shown are side measurements of this screen, not its main read-out; they come without a call. The list favours compounds with an active or inconclusive main result. Potencies come from curve fits of mixed quality, noted in brackets.

The assay is described as follows: qHTS Assay for Lipid Storage Modulators in Drosophila S3 Cells.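 On cell number change: cells counted by Cell Tracker Red CMTPX staining in the red channel.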 To be noted: BODIPY lipid droplet fluorescence, 18-24 h; for cell number change: measured here: cell count max response, cells fed with added oleic acid. In a few lines: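 Drosophila S3 cells loaded with oleic acid (400 uM, as added) and compounds at several concentrations; lipid droplets imaged by 488-nm laser-scanning cytometry, 500–530 nm intensity and object ratio to cell channel. Percent activity normalized to 20 uM Triacsin C.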
(Quantitative high-throughput screening tests each substance at several concentrations.)

The mark [1] stands for this setting: measured here: lipid fluorescence (Fed channel) AC50, cells fed with added oleic acid.
The mark [2] stands for this setting: measured here: cell number channel AC50, cells fed with added oleic acid.

In general, AC50 refers to the concentration at which the activity in the assay is half-maximal. High values mean weaker potency, low ones greater potency. On to `CCOC(=O)C1=NOC(CNc2ncc(C(F)(F)F)cc2Cl)C1` (stereo not drawn), for which the cell number change is -14.8%. For the same compound, the AC50 under setting [1] was 20.6 µM [falling, partial curve].

Consider `O=C(CCC(=O)N1CCCCC1)Nc1ccc(Cl)c(Cl)c1`, for which the cell number change worked out at 24.2%. The AC50 under setting [1] was 29.1 µM [rising, single point].

For the compound `Cc1cccc(C(=O)Nc2cccc(NC(=O)c3ccccc3)c2)c1`, the cell number change is -15.7%. Moreover, the AC50 under setting [1] is 3.26 µM [falling, single point].

In the case of `CC(=O)N1CCN(CC(=O)Nc2cc(S(=O)(=O)N3CCOCC3)ccc2C)CC1`, the cell number change came out at 12.9%.

Regarding `O=C(O)CCCn1c(=O)c2cccn2c2ccc(F)cc21`, the cell number change came to 32.4%. The AC50 under setting [2] was 0.651 µM [rising, full curve, poor fit]. Moreover, the AC50 under setting [1] is 1.16 µM [rising, full curve].

Turning to `O=C(CSc1nnc(Cc2ccccc2)n1-c1cccc(Cl)c1)N1CCOCC1`, the cell number change was -85.1%. Moreover, the AC50 under setting [1] was 0.82 µM [rising, full curve].

As to `Cc1sc2nc(C)n(/N=C/c3ccccc3O)c(=O)c2c1C`, the cell number change was found to be 5.22%. In addition, under setting [1], the AC50 was 1.64 µM [falling, partial curve].

Turning to `O=C(CN1C(=O)c2cccnc2Oc2ccc(Cl)cc21)N1CCCC1`, the cell number change is -26.4%. Further, under setting [1], the AC50 is 18.4 µM [falling, partial curve, poor fit].

As to `Cc1ccc(CCN2CCN=C2N(C)C)cc1`, the cell number change stood at 8.98%. For the same compound, under setting [2], the AC50 is 2.31 µM [rising, partial curve, poor fit].

Consider `COC(=O)c1cc(-c2c(C)oc3cc(OC(C)C)ccc3c2=O)c(C)o1`, for which the cell number change was -23%. Further, the AC50 under setting [1] was 0.164 µM [rising, full curve].

As to `O=[N+]([O-])c1ccc(Oc2cccc3cccnc23)c([N+](=O)[O-])c1`, the AC50 under setting [1] is 20.6 µM [falling, single point].

As for `COc1ccc2cc(C(=O)N(C)CC(=O)Nc3ccccc3Br)ccc2c1`, the cell number change was determined as 38.1%. Moreover, under setting [2], the AC50 is 9.2 µM [rising, partial curve, poor fit].

For `CCN(CC)S(=O)(=O)c1ccc(Cl)c(NC(=O)COC(=O)c2ccc(O)cc2)c1`, the cell number change was determined as 16.5%. Under setting [1], the concentration at half-maximal activity (AC50) was 18.4 µM [falling, single point].

In the case of `COc1ccc(-n2c(=O)c3ccccc3n(CC(=O)Nc3cccc(OC)c3)c2=O)cc1`, the cell number change worked out at 41.9%.

For `Cc1nn(Cc2cccc3ccccc23)c(C)c1NC(=O)c1cccnc1`, the cell number change was found to be 38%. Moreover, under setting [2], the AC50 was 2.06 µM [rising, partial curve, poor fit]. Also, the AC50 under setting [1] was 1.03 µM [rising, full curve].

As to `CSc1ccc(S(=O)(=O)NCC(=O)OCC(=O)N2CCCCC2C)cc1[N+](=O)[O-]` (stereo not drawn), the cell number change was -75%. For the same compound, under setting [2], the AC50 is 9.2 µM [falling, partial curve].

As for `O=C1CCN(Cc2ccccc2)CCN1[C@H](CSc1ccccc1)Cc1ccccc1`, the cell number change was determined as 14.1%. The AC50 under setting [2] was 0.82 µM [rising, full curve]. The AC50 under setting [1] is 0.731 µM [rising, full curve].

For the compound `Cc1cc(C)n2nc(SCC(=O)c3cc(C)n(-c4cc(C)on4)c3C)nc2n1`, the cell number change is -27.3%. The AC50 under setting [2] was 1.46 µM [falling, full curve, poor fit]. For the same compound, the concentration at half-maximal activity (AC50) under setting [1] was 1.3 µM [falling, full curve, poor fit].

For `COc1ccccc1-c1cc(C(F)(F)F)nc(S(=O)(=O)CCCC(=O)N2CCCCC2C)n1` (stereo not drawn), the cell number change was -53.7%. In addition, the half-maximal activity concentration (AC50) under setting [2] is 18.4 µM [falling, partial curve, poor fit]. Also, the AC50 under setting [1] is 20.6 µM [falling, partial curve].

`N#Cc1ccc(/C=C/C(=O)c2ccco2)cc1`: the cell number change is -2.34%. Besides, under setting [1], the concentration at half-maximal activity (AC50) is 29.1 µM [falling, single point].

As to `CCCCCN(C(=O)CCC(=O)OCC(=O)Nc1cccc(CC)c1)c1c(N)n(CCCC)c(=O)[nH]c1=O`, the cell number change is 36.4%. In addition, the AC50 under setting [2] was 29.1 µM [rising, single point].

Turning to `O=C1c2ccccc2C(=O)N1CC1c2ccccc2CCN1S(=O)(=O)c1cnc[nH]1` (stereo not drawn), the cell number change is -4.8%. For the same compound, the AC50 under setting [2] was 0.651 µM [falling, partial curve, poor fit]. Besides, under setting [1], the AC50 is 6.51 µM [falling, single point].

As for `COc1ccc(C2Nc3ccccc3C(=O)N2c2ccc(C)cc2)cc1Cn1nnc2ccccc21` (stereo not drawn), the cell number change was -23.1%. The AC50 under setting [2] is 4.11 µM [falling, full curve, poor fit]. The AC50 under setting [1] is 6.51 µM [falling, single point].

With `COc1ccc(CN2C(=O)CSC2c2ccccn2)cc1` (stereo not drawn), the cell number change turned out to be 25.8%. Also, the AC50 under setting [1] was 0.0231 µM [rising, full curve, poor fit].

As for `Cc1ccc(S(=O)(=O)CCC(=O)OCc2ccccc2F)cc1`, the cell number change came to 2.46%. Moreover, the AC50 under setting [2] was 6.51 µM [falling, single point].

Turning to `Cc1ccc(NC(=O)C(C)c2ccc([N+](=O)[O-])cc2)cc1Cl` (stereo not drawn), the cell number change was -23%. Moreover, the AC50 under setting [1] was 29.1 µM [falling, single point].

With `O=C(NCCCn1ccnc1)/C(=C\c1cccs1)NC(=O)c1cccs1`, the cell number change was 15.6%. The AC50 under setting [1] was 4.61 µM [rising, partial curve, poor fit].

On to `O=C(Nc1ccccc1)c1ccccc1OS(=O)(=O)c1ccccc1`, for which the cell number change was -23%. Moreover, the AC50 under setting [1] was 1.16 µM [rising, partial curve].

For `Oc1cccc(Oc2ncc(C(F)(F)F)cc2Cl)c1`, the cell number change is -16.6%.

As to `COc1cc(NC(=S)NC(=O)c2ccc(C(C)(C)C)cc2)ccc1NC(=O)c1cccs1`, the cell number change is 4.15%.

In the case of `O=C(Cc1c(F)cccc1Cl)N1CCN(S(=O)(=O)c2cccs2)CC1`, the cell number change was -6.87%. Further, the AC50 under setting [1] was 0.092 µM [falling, full curve, poor fit].

Regarding `CC(=O)Oc1ccc2nc(/C=C/c3ccc(C=O)cc3)oc(=O)c2c1`, the cell number change is -11.6%.

As for `CN(CCc1ccccn1)S(=O)(=O)c1ccc(F)cc1`, the cell number change was -25.2%. For the same compound, under setting [2], the AC50 is 0.58 µM [falling, full curve, poor fit]. Moreover, the AC50 under setting [1] was 18.4 µM [falling, single point].

`CCC1Sc2ccc(S(=O)(=O)CCC(=O)NC3CCCCCC3)cc2NC1=O` (stereo not drawn): the cell number change was -22.6%. In addition, the concentration at half-maximal activity (AC50) under setting [1] was 29.1 µM [falling, single point].

On to `O=C(OCC(=O)N1CCCCCC1)c1n[nH]c(=O)c2ccccc12`, for which the cell number change is -11.3%. For the same compound, the AC50 under setting [2] is 6.51 µM [falling, single point]. In addition, the AC50 under setting [1] was 29.1 µM [falling, single point].

On to `Cc1ccc(C(C(=O)NC2CCCCC2)N(C(=O)Cc2c[nH]c3ccccc23)c2ccccc2C)o1` (stereo not drawn), for which the cell number change was -8.8%. Also, the AC50 under setting [1] is 6.51 µM [falling, partial curve].

Consider `Cc1nc(N)ncc1-c1ccc2c(c1)OCO2`, for which the cell number change was 28.2%. Moreover, under setting [1], the AC50 was 5.17 µM [rising, full curve].

For the compound `O=c1cc(CN2CCN(Cc3ccccc3)CC2)c2ccc(O)c(O)c2o1`, the AC50 under setting [1] is 29.1 µM [falling, single point].

Regarding `COc1ccc(OC)c(N(CC(=O)NCc2cccnc2)S(C)(=O)=O)c1`, the cell number change is 7.54%. Under setting [1], the AC50 is 9.2 µM [rising, partial curve, poor fit].

Consider `COc1ccc(N(CCC(=O)O)S(=O)(=O)c2ccc(C)c(C)c2)cc1`, for which the cell number change is -61.5%. Besides, the AC50 under setting [2] was 6.51 µM [falling, full curve]. Further, the AC50 under setting [1] was 5.8 µM [falling, full curve].

Regarding `Cc1cc(Cl)c(OCCCSc2nc(C)cc(=O)[nH]2)c(Br)c1`, the cell number change was -33.2%. Also, under setting [2], the AC50 is 25.9 µM [falling, single point]. Also, under setting [1], the AC50 is 1.46 µM [falling, partial curve, poor fit].

Consider `COc1cc(C(=O)OCc2ccc(C)cc2)cc(NC(=O)c2cccs2)c1OC`, for which the AC50 runs as follows: under setting [2], 0.651 µM [rising, single point]; under setting [1], 29.1 µM [falling, partial curve, poor fit].

Consider `O=C(NC1=NCCS1)c1ccc(-c2ccc(Cl)cc2)o1`, for which the AC50 reads like this: under setting [2], 2.31 µM [rising, partial curve]; under setting [1], 6.51 µM [rising, single point].

On to `NC1=NC2(CCCC2)n2c(nc3ccccc32)N1`, for which the cell number change is -31.9%. For the same compound, the AC50 under setting [2] is 18.4 µM [falling, single point]. For the same compound, the AC50 under setting [1] was 25.9 µM [falling, partial curve, poor fit].

As for `Cc1cc(NC(=O)C(C)SCC(=O)N(C)CC(=O)Nc2ccccc2Br)no1` (stereo not drawn), under setting [1], the AC50 is 29.1 µM [rising, single point].

With `COc1cccc(CNC(=O)CCCC(=O)Nc2cccc([N+](=O)[O-])c2)c1`, the cell number change turned out to be 6.59%. Besides, under setting [1], the AC50 is 29.1 µM [falling, single point].

In the case of `O=C(N/N=C/c1ccc(Cl)cc1)Nc1ccccc1`, the cell number change is -49.1%. Besides, the AC50 under setting [2] is 23.1 µM [falling, single point]. For the same compound, under setting [1], the AC50 was 29.1 µM [falling, single point].

With `Cc1cc(C(=O)CSc2ccccc2)cc(C)c1O`, the cell number change amounted to 12.1%. The AC50 under setting [1] is 29.1 µM [rising, single point].

For `CCSc1nnc(NC(=O)C2CC2c2ccccc2)s1` (stereo not drawn), the cell number change is -56.1%. Besides, under setting [2], the AC50 was 29.1 µM [falling, single point]. Moreover, the concentration at half-maximal activity (AC50) under setting [1] was 16.4 µM [falling, single point].

Take `Cc1c(Cl)cccc1NC(=O)c1ccc(-n2ccnc2)nc1`: under setting [2], the AC50 was 6.51 µM [rising, single point].

On to `COc1cc(OC)cc(OC(=O)C2CCN(C3=NS(=O)(=O)c4ccccc43)CC2)c1`, for which the cell number change is -50.6%. Besides, the concentration at half-maximal activity (AC50) under setting [2] was 29.1 µM [falling, single point]. In addition, the AC50 under setting [1] was 20.6 µM [falling, single point].

As to `COc1cc(OC)cc(C(=O)NNC(=O)c2cc3c(s2)CCCC3)c1`, the cell number change is -3.33%. The AC50 under setting [1] is 0.0058 µM [falling, full curve, poor fit].

On to `C=CS(=O)(=O)c1sc(Cl)c(N2CCOCC2)c1[N+](=O)[O-]`, for which the cell number change was -64.8%. Under setting [2], the AC50 is 11.6 µM [falling, partial curve]. Besides, the AC50 under setting [1] is 13 µM [falling, partial curve].

For the compound `CSc1ccc(S(=O)(=O)Nc2ccc(N3CCOCC3)c(Cl)c2)cc1`, the cell number change is -7.34%. Moreover, the AC50 under setting [1] is 7.31 µM [rising, partial curve].

In the case of `COc1ccc(NC(=O)Cc2c(C(=O)O)n(C)c3ccccc23)cc1OC`, the cell number change was determined as 18.8%. For the same compound, under setting [2], the half-maximal activity concentration (AC50) was 0.00731 µM [rising, full curve, poor fit]. Under setting [1], the AC50 is 0.0291 µM [rising, full curve, poor fit].

(Values after PubChem BioAssay AID2685 (National Center for Advancing Translational Sciences (NCATS), 2010).)
